Reference: article PMC10042735

T1: BirA* (BirA R118G mutation)-fused KAT8 (UniProt Q9H7Z6)
T1 sequence: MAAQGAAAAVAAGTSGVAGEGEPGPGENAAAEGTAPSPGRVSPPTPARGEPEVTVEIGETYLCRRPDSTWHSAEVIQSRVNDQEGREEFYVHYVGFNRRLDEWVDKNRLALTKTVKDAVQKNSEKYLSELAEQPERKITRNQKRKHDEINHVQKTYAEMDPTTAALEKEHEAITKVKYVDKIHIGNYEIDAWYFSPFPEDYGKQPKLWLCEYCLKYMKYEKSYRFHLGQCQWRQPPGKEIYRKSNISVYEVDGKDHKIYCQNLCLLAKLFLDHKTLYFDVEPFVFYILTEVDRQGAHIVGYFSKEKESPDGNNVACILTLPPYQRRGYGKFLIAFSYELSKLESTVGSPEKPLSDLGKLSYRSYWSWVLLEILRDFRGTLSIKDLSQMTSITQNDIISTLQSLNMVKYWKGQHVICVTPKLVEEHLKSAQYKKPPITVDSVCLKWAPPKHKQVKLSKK

T2: V5-TurboID-tagged KAT8 (UniProt Q9H7Z6)
T2 sequence: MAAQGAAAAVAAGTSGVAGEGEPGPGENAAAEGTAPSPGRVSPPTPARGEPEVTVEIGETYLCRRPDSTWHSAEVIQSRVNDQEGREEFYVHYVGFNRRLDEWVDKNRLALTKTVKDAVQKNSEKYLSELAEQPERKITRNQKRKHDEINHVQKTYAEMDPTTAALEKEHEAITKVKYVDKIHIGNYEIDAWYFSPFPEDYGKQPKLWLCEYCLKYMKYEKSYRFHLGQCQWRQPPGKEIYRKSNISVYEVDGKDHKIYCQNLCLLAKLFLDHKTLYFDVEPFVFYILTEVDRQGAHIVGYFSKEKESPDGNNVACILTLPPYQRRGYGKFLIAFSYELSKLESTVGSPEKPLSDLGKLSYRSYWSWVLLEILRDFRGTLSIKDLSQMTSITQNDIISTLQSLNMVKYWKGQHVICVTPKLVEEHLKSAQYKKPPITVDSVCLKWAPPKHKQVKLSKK


Key:
[1] = target: T1, BirA* (BirA R118G mutation)-fused KAT8; experiment: proximity labelling; BirA*-fused KAT8 or IRF1 in A375 cells, with or without 100 U/mL IFN-γ, 50 μM biotin for 24 h; streptavidin beads, blot
V5-TurboID-tagged KAT8 [2] = target: T2, V5-TurboID-tagged KAT8; experiment: proximity labelling; V5-TurboID-KAT8 in A375 cells: doxycycline 500 ng/ml 24 h, IFNγ 100 U/ml 6 h, 50 μM biotin for 15 min; lysis in RIPA-SDS buffer, streptavidin beads, mass spectrometry
V5-TurboID-tagged KAT8 [3] = target: T2, V5-TurboID-tagged KAT8; experiment: proximity labelling; V5-TurboID-KAT8 A375 cells treated with 10 μM 2142-R8 or Mut-R8 and doxycycline for 24 h, IFNγ 6 h, 50 μM biotin 15 min; streptavidin beads, SDS-PAGE; KAT8 with endogenous IRF1
V5-TurboID-tagged KAT8 [4] = target: T2, V5-TurboID-tagged KAT8; experiment: proximity labelling; same experiment as a7, read for the peptide added to the cells (10 μM, 24 h) against KAT8 in cells; only the binder purified

Binder | binding [1] | binding (V5-TurboID-tagged KAT8 [2]) | binding (V5-TurboID-tagged KAT8 [3]) | binding (V5-TurboID-tagged KAT8 [4])
endogenous IRF1 (protein, UniProt P10914 1-325) MPITRMRMRPWLEMQINSNQIPGLIWINKEEMIFQIPWKHAAKHGWDINKDACLFRSWAIHTGRYKAGEKEPDPKTWKANFRCAMNSLPDIEEVKDQSRNKGSSAVRVYRMLPPLTKNQRKERKSKSSRDAKSKAKRKSCGDSSPDTFSDGLSSSTLPDDHSSYTVPGYMQDLEVEQALTPALSPCAVSSTLPDWHIPVEVVPDSTSDLYNFQVSPMPSTSEATTDEDEEGKLPEDIMKLLEQSEWQPTNVDGKGYLLNEPGVQPTSVYGDFSCKEEPEIDSPGGDIGLSLQRVFTDLKNMDATWLDSLLTPVRLPSIQAIPCAP | binds | binds | binds | –
IPGLIWINKEEMIFQIPWKHAARRRRRRRR (peptide, UniProt P10914 21-42) [2142–R8 peptide] | – | – | – | binds

Results are given in words; binding and its absence hold for the method and conditions named. Binding seen in cells or lysates may run through a third protein. These calls come from enrichment with a bait or labelling near it, and not all partners need be listed. Sequences can lack the tags named with a protein.
